{"source": "patent US20230020036A1", "about": "“TREATMENT OF EPILEPTIC CONDITIONS WITH GABAA RECEPTOR MODULATORS” (NEUROCYCLE THERAPEUTICS, INC., priority 2019, published 2023)", "test_system": "Scn1a+/- heterozygous knockout mice ([129xB]F1.Scn1a+/-), heat-induced seizures", "test": "Hyperthermia-induced seizure study in Scn1a+/- heterozygous knockout mice", "type": "in vivo, mouse", "settings": "for Base. Temp: summary", "excerpt": "Reason for selection of species: The Scn1a^+/− knockout mouse ([129xB]F1. Scn1a^+/−) is a model subject of DS with a high translational value.\nBetween P14 and 16, Scn1a^+/− heterozygous knockout mice are randomly assigned to treatment groups (n=7 males, 7 females/treatment group). The Scn1a^+/− knockout mouse model was chosen because it is an art accepted animal model for epileptic conditions, including for Dravet Syndrome. Treatments are GABAA receptor modulator 1 (“Compound 1” as a phosphate salt at 0.1, 0.3, 1.0 mg/kg), GABAA receptor modulator 2 (“Compound 2” at 3, 10, 30, 100 mg/kg), vehicle, or Clobazam (“CBZ”) (10 mg/kg; positive control).\nThe GABAA receptor modulators were administered intraperitoneally (i.p.) using a 0.5 or 1-ml plastic syringe fitted with a 27 or 30 gauge 0.5″-long beveled needle.\nAnimals received 10 mL of formulation per kg of body weight as measured on the day of experiment.\nIn order to verify the dose concentration, mice were dosed with a test article or control and placed into individual housing cages. A temperature probe was gently inserted into the mouse's rectum and secured by taping the probe's wire to the mouse's tail with the tag end on the mouse's dorsal side. For each group, the insertion of the probe was as follows: • a. For mice administered CBZ, five (5) mins passed before insertion of the probe in order to allow 20-30 min pretreatment time when the state of hyperthermia reached. • b. For mice administered Compound 1, thirty-five (35) mins passed before insertion of the probe in order to allow 50-60 min pretreatment time when the state of hyperthermia is reached. • c. For mice administered […], five (5) mins passed before insertion of the probe in order to allow 20-30 min pretreatment time when the state of hyperthermia reached.\nEach mouse was allowed to acclimate to the temperature probe for five (5) minutes before recording the baseline temperature. FIGS. 1-3 depict the starting temperatures of the female mice, the male mice, and the average starting temperatures of all mice prior to inducing the heat-induced seizures.\nFIGS. 4-6 depict the final core body temperature of the female mice, the male mice, and the average final core body temperature of all mice after heating. FIGS. 7-9 illustrate the total temperature change for the female mice, the male mice, and average of all mice; while FIGS. 10-12 depict the average temperature change per minute for the female mice, the male mice, and average of all mice. The mouse's body temperature was maintained at 42.5° C. for 3 mins. If no seizure occurred, the mouse was considered seizure-free.", "data": [{"smiles": "CN1C(=O)CC(=O)N(c2ccccc2)c2cc(Cl)ccc21", "note": "[Clobazam, reference compound]", "values": [{"measurement": "Base. Temp", "setting": "10 mg/kg (n = 24)", "value": 34.82, "unit": "°C"}]}, {"smiles": "CC(C)(O)c1cnn2c(-c3ccc(F)c(-c4c(F)cccc4C#N)c3)cnc2n1", "note": "[Compound 1]", "values": [{"measurement": "Base. Temp", "setting": "0.1 mg/kg (n = 16)", "value": 35.15, "unit": "°C"}, {"measurement": "Base. Temp", "setting": "0.3 mg/kg (n = 18)", "value": 35.20, "unit": "°C"}, {"measurement": "Base. Temp", "setting": "1.0 mg/kg (n = 22)", "value": 35.34, "unit": "°C"}]}, {"smiles": "C#Cc1ccc2c(c1)C(c1ccccn1)=NCc1c(-c3nc(CC)no3)ncn1-2", "note": "[Compound 2]", "values": [{"measurement": "average change in body temperature per minute", "setting": "100 mg/k, all mice, FIG. 12, lowest rate of all groups", "value": "about 0.4 ° C./min"}, {"measurement": "Base. Temp", "setting": "3 mg/kg (n = 14)", "value": 35.28, "unit": "°C"}, {"measurement": "Base. Temp", "setting": "10 mg/kg (n = 14)", "value": 35.27, "unit": "°C"}, {"measurement": "Base. Temp", "setting": "30 mg/kg (n = 15)", "value": 35.25, "unit": "°C"}, {"measurement": "Base. Temp", "setting": "100 mg/kg (n = 8)", "value": 34.60, "unit": "°C"}]}]}
